# Laboratory results reported in article PMC7275706.
# Protein sequences, listed by entry. Tags and fused reporters are not part of them. Lines headed by an entry give the natural chain unless they say otherwise; changes in a name come on top.
# UniProt Q1JT06: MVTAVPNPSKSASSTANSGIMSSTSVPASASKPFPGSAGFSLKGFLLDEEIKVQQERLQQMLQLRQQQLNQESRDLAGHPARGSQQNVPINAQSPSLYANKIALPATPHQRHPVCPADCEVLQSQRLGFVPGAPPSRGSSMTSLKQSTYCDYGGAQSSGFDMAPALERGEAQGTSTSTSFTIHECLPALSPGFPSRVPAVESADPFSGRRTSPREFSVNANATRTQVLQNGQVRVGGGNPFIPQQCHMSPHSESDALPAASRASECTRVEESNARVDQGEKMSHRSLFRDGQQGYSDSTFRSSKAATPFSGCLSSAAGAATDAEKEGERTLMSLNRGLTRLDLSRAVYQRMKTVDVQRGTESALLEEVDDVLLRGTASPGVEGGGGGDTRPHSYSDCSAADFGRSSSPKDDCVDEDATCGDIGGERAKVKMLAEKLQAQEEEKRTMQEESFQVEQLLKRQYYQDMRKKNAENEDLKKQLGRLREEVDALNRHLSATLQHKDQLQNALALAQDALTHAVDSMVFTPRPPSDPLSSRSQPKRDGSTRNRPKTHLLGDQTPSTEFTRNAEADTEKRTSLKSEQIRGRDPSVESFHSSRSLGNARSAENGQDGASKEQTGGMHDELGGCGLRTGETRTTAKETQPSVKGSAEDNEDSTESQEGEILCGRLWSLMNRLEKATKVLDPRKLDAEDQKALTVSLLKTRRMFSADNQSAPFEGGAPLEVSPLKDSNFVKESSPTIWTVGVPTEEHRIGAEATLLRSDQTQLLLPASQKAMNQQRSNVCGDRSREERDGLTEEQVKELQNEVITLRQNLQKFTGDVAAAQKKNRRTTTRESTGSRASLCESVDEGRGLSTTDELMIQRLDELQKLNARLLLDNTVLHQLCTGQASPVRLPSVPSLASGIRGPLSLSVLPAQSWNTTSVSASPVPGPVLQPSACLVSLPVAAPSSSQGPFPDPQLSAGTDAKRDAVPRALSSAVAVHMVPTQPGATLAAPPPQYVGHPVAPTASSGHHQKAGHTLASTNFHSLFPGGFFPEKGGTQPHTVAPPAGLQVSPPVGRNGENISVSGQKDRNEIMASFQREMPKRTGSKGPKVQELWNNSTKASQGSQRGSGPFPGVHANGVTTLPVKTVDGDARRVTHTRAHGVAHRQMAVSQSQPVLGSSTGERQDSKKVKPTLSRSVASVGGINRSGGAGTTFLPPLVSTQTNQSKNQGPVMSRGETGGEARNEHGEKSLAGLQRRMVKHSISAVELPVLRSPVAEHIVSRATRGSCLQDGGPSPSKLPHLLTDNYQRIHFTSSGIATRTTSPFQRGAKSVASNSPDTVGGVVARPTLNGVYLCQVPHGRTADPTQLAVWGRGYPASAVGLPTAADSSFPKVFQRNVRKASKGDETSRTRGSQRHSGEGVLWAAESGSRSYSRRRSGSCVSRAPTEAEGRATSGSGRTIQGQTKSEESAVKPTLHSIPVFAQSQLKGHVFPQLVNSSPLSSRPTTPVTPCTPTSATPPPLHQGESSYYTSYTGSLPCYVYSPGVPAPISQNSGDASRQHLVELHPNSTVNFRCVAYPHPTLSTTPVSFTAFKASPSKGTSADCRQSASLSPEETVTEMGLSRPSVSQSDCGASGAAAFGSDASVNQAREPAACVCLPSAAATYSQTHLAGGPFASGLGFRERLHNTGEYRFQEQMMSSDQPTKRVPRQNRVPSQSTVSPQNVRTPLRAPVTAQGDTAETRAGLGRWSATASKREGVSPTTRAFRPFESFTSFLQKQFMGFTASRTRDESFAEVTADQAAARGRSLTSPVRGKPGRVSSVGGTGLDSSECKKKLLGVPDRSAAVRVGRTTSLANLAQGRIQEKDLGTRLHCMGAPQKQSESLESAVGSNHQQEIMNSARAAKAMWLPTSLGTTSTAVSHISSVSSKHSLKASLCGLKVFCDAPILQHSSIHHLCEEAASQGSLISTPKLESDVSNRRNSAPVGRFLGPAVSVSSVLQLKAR
# These are yes or no findings as the source states them, for the method shown. In cells and extracts the contact can be indirect. These calls come from enrichment with a bait or labelling near it, and not all partners need be listed.
# Molecular target: AC9 endogenously tagged with BirA* (AC9^BioID) (Toxoplasma gondii) (UniProt S7V0W9)
# Experiment: proximity labelling; AC9-BirA* parasites grown 24 h in 150 μM biotin; 1% Triton X-100 cytoskeletal fraction; streptavidin purification; LC-MS/MS
substance,measurement,value
"apical cap protein 10 (AC10; TGGT1_292950), endogenous in parasites (from UniProt Q1JT06)",binding,binds
